From PubChem BioAssay AID2685 (National Center for Advancing Translational Sciences (NCATS), 2010)
The other results are listed elsewhere or left out. Further columns of the screen follow, without active or inactive calls. Most of these compounds were active or inconclusive in the main read-out, so they are no random draw. Words in brackets tell the shape of the fitted curve; partial curves, single points and poor fits give uncertain potencies.

Assay: qHTS Assay for Lipid Storage Modulators in Drosophila S3 Cells;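 as to cell number change: cells counted by Cell Tracker Red CMTPX staining in the red channel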
Conditions: BODIPY lipid droplet fluorescence, 18-24 h; for cell number change: measured here: cell count max response, cells fed with added oleic acid
In short: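 Drosophila S3 cells loaded with oleic acid (400 uM, as added) and compounds at several concentrations; lipid droplets imaged by 488-nm laser-scanning cytometry, 500–530 nm intensity and object ratio to cell channel. Percent activity normalized to 20 uM Triacsin C.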

[1] = measured here: lipid fluorescence (Fed channel) AC50, cells fed with added oleic acid
[2] = measured here: cell number channel AC50, cells fed with added oleic acid

Structure (SMILES) | cell number change | AC50 [1] | AC50 [2]
CCOc1cccc(C(=O)Nc2cc(C)ccc2NC(=O)c2ccco2)c1 | 5.52% | 16.4 µM [rising, single point] | 
CCC(=O)Nc1cc(=O)[nH]c2nc(-c3ccc(Cl)cc3)nn12 |  | 0.0461 µM [rising, full curve] | 
O=C(N/N=C/C1CC2CCC1C2)C1CC1 (stereo not drawn) | 16.4% | 8.2 µM [rising, partial curve, poor fit] | 
Cc1ccc(C(=O)N/C(=C/c2cccs2)C(=O)NCCc2c[nH]c3ccccc23)cc1 | 4.83% | 0.164 µM [rising, full curve, poor fit] | 
CN(c1ccccc1)S(=O)(=O)c1cccc(NC(=O)CSc2ncc(C(F)(F)F)cc2Cl)c1 | 20.2% | 29.1 µM [falling, single point] | 
COc1ccc(C2Nc3ccccc3C(=O)N2NS(C)(=O)=O)cc1OC (stereo not drawn) | -2.71% | 0.103 µM [falling, full curve, poor fit] | 
CCOC(=O)C1CCCN(C(=O)CN2C(=O)COc3ccc(C(C)(C)C)cc32)C1 (stereo not drawn) | -12.5% |  | 
CCOC(=O)c1ccc(NC(=O)Cn2ncc(Cl)c(Cl)c2=O)cc1 | -14.2% | 20.6 µM [rising, single point] | 
O=C(O)CC1S/C(=N/N=C/c2ccc(-c3ccc(Cl)cc3[N+](=O)[O-])o2)NC1=O (stereo not drawn) | -5.39% |  | 
CC(C)(C)Nc1nc(Cl)nc(NCc2ccccc2)n1 | 26.3% | 6.51 µM [rising, single point] | 
O=C1CCC/C(=N\NC(=O)c2ccc(CSc3cccc4cccnc34)cc2)C1 | -67.5% |  | 
Cc1ccc(-n2cnc3sc(C)c(C)c3c2=O)cc1 | -1.59% | 7.31 µM [rising, single point] | 0.731 µM [rising, single point]
COc1ccc(C(=O)NCc2nnc(SCC(=O)NC3CCCCC3)n2C)cc1 | 34.2% | 29.1 µM [rising, partial curve, poor fit] | 14.6 µM [rising, partial curve, poor fit]
CCOc1ccc(C(C)NC(=O)Cc2ccccc2F)cc1OCC (stereo not drawn) | 54.9% | 6.51 µM [falling, single point] | 
C/C(=N\Nc1nc(C)cc(-c2ccccc2)n1)c1ccc(O)cc1 | -7% | 29.1 µM [falling, single point] | 
Cc1ccc(NC(=O)CCN2CC(C)OC(C)C2)cc1 (stereo not drawn) | 14.2% | 6.51 µM [rising, single point] | 
COCc1cc(Sc2ccc(OC)cc2)nc(-c2ccccc2)n1 | 89.5% | 23.1 µM [rising, partial curve] | 20.6 µM [rising, single point]

Another view of part of the listing above.
Structure (SMILES)	cell number change	AC50 [1]	AC50 [2]
CCOC(=O)c1ccc(NC(=O)Cn2ncc(Cl)c(Cl)c2=O)cc1	-14.2%	20.6 µM [rising, single point]	
O=C(O)CC1S/C(=N/N=C/c2ccc(-c3ccc(Cl)cc3[N+](=O)[O-])o2)NC1=O (stereo not drawn)	-5.39%		
